This assay has as its target FGL1 (fibrinogen-like protein 1) (human (endogenous in SW-13)) (UniProt Q08830). Put plainly: co-IP; SW-13 cell lysate (IP lysis buffer) incubated with FGL1 antibody or IgG overnight at 4°C, protein A/G agarose beads 4 h at RT; eluate blotted for CENPM.

Amino acid sequences for entries named in this document (tags omitted). Residues count along the entry.
UniProt Q08830, residues 23-312: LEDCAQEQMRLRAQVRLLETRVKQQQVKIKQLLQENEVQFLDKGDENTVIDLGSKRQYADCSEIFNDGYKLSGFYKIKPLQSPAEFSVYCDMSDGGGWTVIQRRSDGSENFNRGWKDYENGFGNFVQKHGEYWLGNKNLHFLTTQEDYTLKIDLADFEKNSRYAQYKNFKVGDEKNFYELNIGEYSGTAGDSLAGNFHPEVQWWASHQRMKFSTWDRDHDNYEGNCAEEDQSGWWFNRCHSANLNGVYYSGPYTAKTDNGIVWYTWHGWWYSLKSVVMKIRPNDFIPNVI
UniProt Q9NSP4: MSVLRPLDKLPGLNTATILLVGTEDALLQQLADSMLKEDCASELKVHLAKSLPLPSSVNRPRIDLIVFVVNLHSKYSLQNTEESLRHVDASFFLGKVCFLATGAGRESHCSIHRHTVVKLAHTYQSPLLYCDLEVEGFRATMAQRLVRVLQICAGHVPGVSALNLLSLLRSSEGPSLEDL

One substance from paper PMC11707433 can be followed below.

No constants are given. Whether binding was seen depends on the method and setting. Binding seen in cells or lysates may run through a third protein. Some binding calls cover weakened binding; strength is not graded here.

Take CENPM (from UniProt Q9NSP4 1-180): the binding entry is “binds”.
